Results are given in words; binding and its absence hold for the method and conditions named.
Assays:
mouse CXCR4 (mouse) [1] = target: mouse CXCR4 (mouse) (UniProt P70658); assay: staining of mouse lymphocytes and EL4 cells; mouse lymphocytes and mouse B-cell line EL4 (endogenous mouse CXCR4)
mouse CXCR4 (mouse) [2] = target: mouse CXCR4 (mouse) (UniProt P70658); assay: stated in the epitope mapping example (swap mutants); general conclusion stated in the swap-mutant epitope mapping example
mouse CXCR4 (mouse) [3] = target: mouse CXCR4 (mouse) (UniProt P70658); assay: flow cytometry, CHO cells transiently transfected with MoCXCR4, dot plot SSC-A against PE-A

Amino acid sequences for entries named in this document (tags omitted). A change or cut given only in a name is not applied to a line headed by its entry.
UniProt P70658: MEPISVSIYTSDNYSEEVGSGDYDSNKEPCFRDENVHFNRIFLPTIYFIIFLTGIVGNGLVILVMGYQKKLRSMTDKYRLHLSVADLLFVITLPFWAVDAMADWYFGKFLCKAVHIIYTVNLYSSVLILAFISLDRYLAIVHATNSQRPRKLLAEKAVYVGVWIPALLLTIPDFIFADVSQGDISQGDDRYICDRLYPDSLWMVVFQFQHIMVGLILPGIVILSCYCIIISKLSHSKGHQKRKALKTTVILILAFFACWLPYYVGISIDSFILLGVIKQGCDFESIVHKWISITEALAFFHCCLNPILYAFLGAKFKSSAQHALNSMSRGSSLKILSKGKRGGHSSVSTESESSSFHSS

- binding (mouse CXCR4 (mouse) [1]): no binding
- binding (mouse CXCR4 (mouse) [2]): no binding
- binding (mouse CXCR4 (mouse) [3]): no binding (tested: 0.1 µg/ml)
B1: 6C7 (antibody, V domains shown)
VH: QVQLVESGGGVVQPGRSLRLSCAASGFTFSNYVMHWVRQAPGKGLEWVAVIWYDGSNKYYADSVKGRFTISRDNSKNTLSLQMNSLRAEDTAVYYCERGEGYYGSGSRYRGYYYGMDVWGQGTTVTVSS
VL: DIQMTQSPSSLSASVGDRVTITCRASQGIRTDLGWYQQKPGKAPKRLIYAASSLQSGVPSRFSGSGSGTEFTLTISSLQPEDFATYYCLQHNSYPRTFGQGTKVEIK

— patent US20140314784A1
